# In patent US20220213213A1:
# Amino acid sequences for entries named in this document (tags omitted). A change or cut given only in a name is not applied to a line headed by its entry.
# UniProt A9YYE7: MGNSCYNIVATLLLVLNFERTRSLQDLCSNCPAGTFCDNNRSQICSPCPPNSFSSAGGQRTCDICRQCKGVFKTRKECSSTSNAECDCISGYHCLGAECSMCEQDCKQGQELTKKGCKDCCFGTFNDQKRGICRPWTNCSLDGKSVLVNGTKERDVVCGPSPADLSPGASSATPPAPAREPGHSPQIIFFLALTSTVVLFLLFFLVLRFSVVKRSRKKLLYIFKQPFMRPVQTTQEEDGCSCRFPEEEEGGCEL
# UniProt P25942: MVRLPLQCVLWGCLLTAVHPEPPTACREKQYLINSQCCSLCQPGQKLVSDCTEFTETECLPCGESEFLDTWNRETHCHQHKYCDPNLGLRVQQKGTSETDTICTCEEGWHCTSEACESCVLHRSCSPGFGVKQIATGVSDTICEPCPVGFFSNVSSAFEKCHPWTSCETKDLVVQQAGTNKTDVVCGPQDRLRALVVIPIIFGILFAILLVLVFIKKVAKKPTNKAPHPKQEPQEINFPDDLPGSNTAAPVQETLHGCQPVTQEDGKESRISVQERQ
# No constants are given. Whether binding was seen depends on the method and setting. Some binding calls cover weakened binding; strength is not graded here.
# Target: cynomolgus CD137 on CHO cells (extracellular part of cynomolgus CD137 fused to transmembrane and intracellular part of human CD40) (cynomolgus; human) (UniProt A9YYE7+P25942)
# Assay: flow cytometry, CHO-cyCD137
row,binding,Binder
1,binds,"1202/1203 (antibody, V domains shown) VH: EVQLLESGGGLVQPGGSLRLSCAASGFTFYGSSMSWVRQAPGKGLEWVSSIYYGSSGTYYADSVKGRFTISRDNSKNTLYLQMNSLRAEDTAVYYCARSYYGYFDYWGQGTLVTVSS VL: DIQMTQSPSSLSASVGDRVTITCRASQSISSYLNWYQQKPGKAPKLLIYAASSLQSGVPSRFSGSGSGTDFTLTISSLQPEDFATYYCQQYYTVVPFTFGQGTKLEIK"
2,binds,"1618/1619 (antibody, V domains shown) VH: EVQLLESGGGLVQPGGSLRLSCAASGFTFSYGSMYWVRQAPGKGLEWVSSISSGSGSTYYADSVKGRFTISRDNSKNTLYLQMNSLRAEDTAVYYCARSSYYGSYYSIDYWGQGTLVTVSS VL: DIQMTQSPSSLSASVGDRVTITCRASQSISSYLNWYQQKPGKAPKLLIYAASSLQSGVPSRFSGSGSGTDFTLTISSLQPEDFATYYCQQYYDNLPTFGQGTKLEIK"
